This is an account of results in patent US20250314646.

The exact form of at least one protein or probe is not confirmed.

Data set [1] relates to Thrombin. Put plainly: binding assay. Particulars: purified native protein, protein details: Sigma-Millipore, single-stranded DNA.
The target in data set [2] is PDGF-BB (UniProt P01127). Put plainly: binding assay. Particulars: CITED Green et al. 1996 (apparently); value stated for 41T aptamer, not measured here; purified recombinant protein; label: 5' fluorescein, 3' Black Hole Quencher 1; single-stranded DNA.

For “TTTTTTAGTCCGTGGTAGGGCAGGTTGGGGTGACT [HD22 aptamer labelled (FIG. 4C)]”, in data set [1] (5' DBCO-TEG via five-thymidine linker, thymine-linked Black Hole Quencher 1, fluorescence thermal melt in solution, Tm about 42 C unbound to about 52 C bound, 1x PBS, 1 mM MgCl2, 0.1 mg/ml BSA, label: 3' FAM, variant of HD22 aptamer), the binding result was “binds”.
Consider “TACTCAGGGCACTGCAAGCAATTGTGGTCCCAATGGGCTGAGTA [41T aptamer (solution, FIG. 4A)]”, for which, in data set [2], the Kd amounted to 0.13 nM.
“AGTCCGTGGTAGGGCAGGTTGGGGTGAC [HD22 aptamer]”: the Kd in data set [1] (CITED Tasset et al. 1997 (apparently), value stated for HD22 aptamer, not measured here) amounted to 0.5 nM.
